Data as given in PubChem BioAssay AID504808 (Drosophila RNAi Screening Center, 2011)

Test: 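Genes whose loss lifts activity of an E2F-responsive reporter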 (primary screen)
Cell system: Drosophila S2 cells
Reagents: long dsRNA against Drosophila genes
Measured: 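Dual luciferase plate measurements; E2F-specific signal taken as firefly over Renilla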
Reading the numbers: E2F firefly: higher = more E2F reporter activity; Renilla normaliser: higher = more normaliser reporter signal
Call rule: 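a knock-down counted as active when the firefly/Renilla E2F signal rose above 50%, a threshold chosen arbitrarily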
The deposit covers about 21,000 reagents; below is an unselected part of those with a known target gene and a result. In the full data, 18 (0.084%) are marked active. 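Raw counts without plate normalisation, one of two replicates; the ratio scores behind the calls were not deposited.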 Names joined by + are all predicted targets of the reagent. Reagent sequences are not shown. Not stated in the record: the amount of reagent, the time to read-out.

What did the screen give for Gr66a (GeneID 38935) [DRSC10783]?
E2F firefly, rep 1: 1.05e5; Renilla normaliser, rep 1: 4109; Outcome: inactive

How did the screen score EMC1 (GeneID 40933) [DRSC15455]?
E2F firefly, rep 1: 75928; Renilla normaliser, rep 1: 3119; Outcome: inactive

With CG4338 (GeneID 41849) [DRSC15564], how do the results read?
E2F firefly, rep 1: 73116; Renilla normaliser, rep 1: 3596; Outcome: inactive

What is on record for CG10038 (GeneID 41495) [DRSC14178]?
E2F firefly, rep 1: 64719; Renilla normaliser, rep 1: 3563; Outcome: inactive

What did the screen give for CG13337 (GeneID 36518) [DRSC06371]?
E2F firefly, rep 1: 1.09e5; Renilla normaliser, rep 1: 4361; Outcome: inactive

For CG11808 (GeneID 36687) [DRSC06088], what does the deposit list?
E2F firefly, rep 1: 77075; Renilla normaliser, rep 1: 3256; Outcome: inactive

For NSD (GeneID 43351) [DRSC15691], what was measured?
E2F firefly, rep 1: 1.47e5; Renilla normaliser, rep 1: 6294; Outcome: inactive

Which result is listed for lncRNA:CR32368 (GeneID 317997) [DRSC08899]?
E2F firefly, rep 1: 1.31e5; Renilla normaliser, rep 1: 4525; Outcome: inactive

With fdl (GeneID 250735) [DRSC07279], what does the deposit list?
E2F firefly, rep 1: 93343; Renilla normaliser, rep 1: 4175; Outcome: inactive

What is on record for trio (GeneID 43974) [DRSC07928]?
E2F firefly, rep 1: 1.39e5; Renilla normaliser, rep 1: 4560; Outcome: inactive

How did the screen score trio (GeneID 43974) [DRSC08527]?
E2F firefly, rep 1: 82223; Renilla normaliser, rep 1: 4397; Outcome: inactive

With trio (GeneID 43974) [DRSC08740], how do the results read?
E2F firefly, rep 1: 96950; Renilla normaliser, rep 1: 3702; Outcome: inactive

What is on record for CG1537 (GeneID 32037) [DRSC19662]?
E2F firefly, rep 1: 1.34e5; Renilla normaliser, rep 1: 7436; Outcome: inactive

4 successive records already listed, quoted:
fdl (GeneID 250735) [DRSC07279] — E2F firefly, rep 1: 93343; Renilla normaliser, rep 1: 4175; Outcome: inactive
trio (GeneID 43974) [DRSC07928] — E2F firefly, rep 1: 1.39e5; Renilla normaliser, rep 1: 4560; Outcome: inactive
trio (GeneID 43974) [DRSC08527] — E2F firefly, rep 1: 82223; Renilla normaliser, rep 1: 4397; Outcome: inactive
trio (GeneID 43974) [DRSC08740] — E2F firefly, rep 1: 96950; Renilla normaliser, rep 1: 3702; Outcome: inactive

The list goes on:
With CG18581 (GeneID 39633) [DRSC10324], what does the deposit list?
E2F firefly, rep 1: 1.60e5; Renilla normaliser, rep 1: 8017; Outcome: inactive

How did the screen score dpr20 (GeneID 38101) [DRSC08265]?
E2F firefly, rep 1: 78448; Renilla normaliser, rep 1: 3811; Outcome: inactive

With nAChRalpha7 (GeneID 32928) [DRSC20078], what was measured?
E2F firefly, rep 1: 1.37e5; Renilla normaliser, rep 1: 470; Outcome: inactive

How did the screen score nAChRalpha7 (GeneID 32928) [DRSC20081]?
E2F firefly, rep 1: 1.34e5; Renilla normaliser, rep 1: 5978; Outcome: inactive

Which result is listed for CG31937 (GeneID 326177) [DRSC00514]?
E2F firefly, rep 1: 87245; Renilla normaliser, rep 1: 3267; Outcome: inactive

For CG17801 (GeneID 42144) [DRSC15273], what was measured?
E2F firefly, rep 1: 1.27e5; Renilla normaliser, rep 1: 6097; Outcome: inactive

What is on record for CG14316 (GeneID 42163) [DRSC14795]?
E2F firefly, rep 1: 1.49e5; Renilla normaliser, rep 1: 7787; Outcome: inactive

What is on record for CG16798 (GeneID 35308) [DRSC02517]?
E2F firefly, rep 1: 1.03e5; Renilla normaliser, rep 1: 4400; Outcome: inactive

What is on record for CG15443 (GeneID 33656) [DRSC00455]?
E2F firefly, rep 1: 1.76e5; Renilla normaliser, rep 1: 5915; Outcome: inactive

How did the screen score Atg17 (GeneID 40700) [DRSC12221]?
E2F firefly, rep 1: 1.49e5; Renilla normaliser, rep 1: 6667; Outcome: inactive

For Hsc70-1 (GeneID 39542) [DRSC11185], what does the deposit list?
E2F firefly, rep 1: 75153; Renilla normaliser, rep 1: 5209; Outcome: inactive

For CG6126 (GeneID 41967) [DRSC15971], how do the results read?
E2F firefly, rep 1: 73542; Renilla normaliser, rep 1: 2756; Outcome: inactive

For CR40450 + CG32767 [DRSC18387], what was measured?
E2F firefly, rep 1: 7234; Renilla normaliser, rep 1: 772; Outcome: inactive

For MAGE (GeneID 40860) [DRSC12504], how do the results read?
E2F firefly, rep 1: 1.34e5; Renilla normaliser, rep 1: 5996; Outcome: inactive

Which result is listed for CG5515 (GeneID 42875) [DRSC15825]?
E2F firefly, rep 1: 66692; Renilla normaliser, rep 1: 3062; Outcome: inactive
